Experimental data: paper PMC7393113

Protein sequences, listed by entry. Tags and fused reporters are not part of them. Lines headed by an entry give the natural chain unless they say otherwise; changes in a name come on top.
UniProt Q9Y4K3: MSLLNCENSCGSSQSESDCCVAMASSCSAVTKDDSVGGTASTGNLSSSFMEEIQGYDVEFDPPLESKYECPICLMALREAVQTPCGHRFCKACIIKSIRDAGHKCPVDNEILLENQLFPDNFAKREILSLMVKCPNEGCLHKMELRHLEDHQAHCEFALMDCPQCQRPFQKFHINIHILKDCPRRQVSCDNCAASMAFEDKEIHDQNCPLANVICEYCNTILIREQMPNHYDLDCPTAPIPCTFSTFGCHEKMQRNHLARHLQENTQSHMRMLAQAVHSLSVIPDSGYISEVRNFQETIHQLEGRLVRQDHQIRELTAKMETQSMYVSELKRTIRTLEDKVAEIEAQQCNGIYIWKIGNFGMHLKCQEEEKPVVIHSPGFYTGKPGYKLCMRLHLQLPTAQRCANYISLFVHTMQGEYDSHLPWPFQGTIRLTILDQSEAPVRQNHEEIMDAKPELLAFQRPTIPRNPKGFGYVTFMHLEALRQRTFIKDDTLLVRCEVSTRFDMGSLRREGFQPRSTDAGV
UniProt P40763: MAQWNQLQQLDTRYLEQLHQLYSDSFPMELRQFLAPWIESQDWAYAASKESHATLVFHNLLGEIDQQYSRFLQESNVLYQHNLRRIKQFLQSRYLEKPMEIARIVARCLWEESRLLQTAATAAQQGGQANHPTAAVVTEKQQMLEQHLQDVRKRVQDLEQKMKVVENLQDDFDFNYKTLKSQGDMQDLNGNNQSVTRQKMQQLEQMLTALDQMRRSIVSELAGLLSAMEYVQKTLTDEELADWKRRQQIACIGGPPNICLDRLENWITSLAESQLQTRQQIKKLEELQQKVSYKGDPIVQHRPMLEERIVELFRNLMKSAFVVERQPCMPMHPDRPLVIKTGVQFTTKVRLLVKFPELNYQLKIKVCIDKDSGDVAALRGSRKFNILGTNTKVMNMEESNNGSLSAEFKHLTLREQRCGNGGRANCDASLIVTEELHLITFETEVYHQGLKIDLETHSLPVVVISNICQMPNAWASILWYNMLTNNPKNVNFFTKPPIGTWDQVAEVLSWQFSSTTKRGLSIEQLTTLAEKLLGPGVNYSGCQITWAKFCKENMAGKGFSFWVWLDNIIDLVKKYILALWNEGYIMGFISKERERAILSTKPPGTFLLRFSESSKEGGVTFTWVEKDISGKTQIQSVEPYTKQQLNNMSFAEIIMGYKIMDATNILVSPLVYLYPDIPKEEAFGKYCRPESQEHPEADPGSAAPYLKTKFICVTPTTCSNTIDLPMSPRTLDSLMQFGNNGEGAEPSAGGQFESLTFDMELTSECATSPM

Molecular target: GST tagged TRAF6 C-domain (UniProt Q9Y4K3)
Assay: pull-down; GST-TRAF6 C-domain on glutathione agarose beads added to clarified lysate of transfected 293T cells; 4 C, 4 h; 50 mM Tris pH 7.4, 1.0% Triton X-100, 150 mM NaCl, 1 mM EDTA; blot with anti-FLAG; only the target purified

Substance	binding
FLAG-tagged STAT3 (wild type) (from UniProt P40763 1-770)	binds
FLAG-tagged STAT3 E28A (from UniProt P40763)	binds
FLAG-tagged STAT3 E28A E680A (from UniProt P40763)	binds
FLAG-tagged STAT3 E100A (from UniProt P40763 1-770)	no binding
FLAG-tagged STAT3 E680A (from UniProt P40763 1-770)	binds

No constants are given. Whether binding was seen depends on the method and setting. In cells and extracts the contact can be indirect. A result given as binding can be weak or reduced; the word gives no strength.
